The other results are listed elsewhere or left out. The main result of the screen is listed elsewhere. These columns were measured beside it and carry no call. The list favours compounds with an active or inconclusive main result. Words in brackets tell the shape of the fitted curve; partial curves, single points and poor fits give uncertain potencies.

Results on 57 compounds are retold here after PubChem BioAssay AID2685 (National Center for Advancing Translational Sciences (NCATS), 2010).

The experiment is described as follows: qHTS Assay for Lipid Storage Modulators in Drosophila S3 Cells.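 On cell number change: cells counted by Cell Tracker Red CMTPX staining in the red channel.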 To be noted: BODIPY lipid droplet fluorescence, 18-24 h; for cell number change: measured here: cell count max response, cells fed with added oleic acid. An outline of the steps:
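Drosophila S3 cells loaded with oleic acid (400 uM, as added) and compounds at several concentrations; lipid droplets imaged by 488-nm laser-scanning cytometry, 500–530 nm intensity and object ratio to cell channel. Percent activity normalized to 20 uM Triacsin C.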
For orientation: qHTS replaces the single test concentration by a dilution series.

Setting [1] is: measured here: cell number channel AC50, cells fed with added oleic acid.
[2] abbreviates: measured here: lipid fluorescence (Fed channel) AC50, cells fed with added oleic acid.

For the compound `CC(=O)c1ccc(NC(=O)CN2C(=O)CCC2=O)cc1`, the cell number change is -5.41%.
The term AC50 denotes the concentration at which the activity in the assay is half-maximal. Read a low AC50 as activity at low concentration. With `CCCCCCn1c(=O)[nH]c2nc3cc(N)ccc3nc2c1=O`, the cell number change is -101%. Besides, under setting [1], the AC50 was 20.6 µM [falling, single point]. Further, the AC50 under setting [2] is 16.4 µM [falling, partial curve].
For the compound `O=C(COc1ccccc1[N+](=O)[O-])N(Cc1ccccc1)c1ccccn1`, the cell number change was 12%. The AC50 under setting [2] was 0.116 µM [falling, full curve, poor fit].
For `COC(=O)C1=C(C)NC(=O)NC1c1ccco1` (stereo not given), the AC50 under setting [2] was 0.517 µM [falling, single point].
For the compound `O=C(Nc1ncn[nH]1)c1cc(S(=O)(=O)Nc2ccc(Cl)cc2)ccc1Cl`, the cell number change was -0.0814%. Moreover, the AC50 under setting [2] was 6.51 µM [rising, partial curve, poor fit].
Regarding `C=CCC(C#Cc1ccccc1)N(C)C` (stereo not given), the cell number change was found to be 2.92%.
Turning to `Cc1ccc(NC(=O)COc2ccc(/C=C3/NC(=O)NC3=O)cc2)cc1`, the cell number change stood at 31.9%. For the same compound, the half-maximal activity concentration (AC50) under setting [2] was 0.00461 µM [rising, full curve, poor fit].
Take `COc1ccc(S(=O)(=O)N2c3ccccc3OCC2C(C)(C)C)cc1` (stereo not given): the cell number change was found to be 9%.
For the compound `COC(=O)CSc1nnc(C)n1-c1ccc(C)cc1`, the cell number change is -12.7%. For the same compound, the AC50 under setting [1] is 0.0411 µM [falling, full curve, poor fit].
Consider `C[C@H](NC(=O)c1nc[nH]c1C(=O)NCCCCCN)C(=O)OCc1ccccc1`, for which the cell number change is -19.5%. Moreover, the AC50 under setting [2] was 0.411 µM [falling, single point].
For `Cc1cccc(C(=O)OCC(=O)NC2CCCCCCC2)c1`, the cell number change is -7.52%. Moreover, the AC50 under setting [2] was 2.31 µM [rising, single point].
As for `COC(=O)c1cc(CSc2nnc(-c3ccccc3)c(-c3ccccc3)n2)oc1C`, the cell number change is -34.1%. Also, the AC50 under setting [1] is 23.1 µM [falling, single point].
On to `Cc1nc(=O)c(-c2ccccc2)c(C)n1-c1ccccc1O`, for which the cell number change is -33.4%. The AC50 under setting [1] is 0.116 µM [falling, full curve]. Under setting [2], the AC50 is 1.03 µM [falling, full curve, poor fit].
For the compound `c1coc(-c2nnc(NC3=NCCC3)o2)c1`, the cell number change was -185%. Besides, under setting [1], the AC50 is 25.9 µM [falling, partial curve]. Moreover, the AC50 under setting [2] is 29.1 µM [falling, partial curve].
With `Cc1nc(NCCc2ccc(F)cc2)c2nnn(Cc3ccccc3)c2n1`, the cell number change was -15.4%.
Regarding `CCOC(=O)Cc1csc(SCc2nc3ccccc3c(=O)[nH]2)n1`, the cell number change amounted to 24%. Further, under setting [1], the AC50 is 0.231 µM [rising, full curve, poor fit].
Consider `O=C(CNC(=O)c1ccco1)OCc1cccc(Cl)c1`, for which the cell number change was -0.0749%. Also, the AC50 under setting [2] was 0.411 µM [falling, single point].
Turning to `CCOC(=O)C(=Cc1c[nH]c2ccc(S(=O)(=O)N(C)C)cc12)C(=O)OCC`, the cell number change is 9.55%. In addition, the AC50 under setting [1] is 0.92 µM [rising, partial curve].
For `COc1ccc(-c2nn(-c3ccccc3)cc2C(=O)N(C)C)cc1`, the cell number change is 28.4%. Moreover, under setting [1], the AC50 was 4.11 µM [rising, full curve, poor fit]. Also, the AC50 under setting [2] was 29.1 µM [rising, single point].
Consider `COc1nc(NCc2cccnc2)nc(OC)n1`, for which the cell number change is -20%. Moreover, under setting [1], the AC50 is 3.66 µM [falling, single point]. In addition, the AC50 under setting [2] is 32.6 µM [falling, partial curve].
On to `Cn1cnnc1SCC(=O)Nc1ccc(Cl)cn1`, for which the cell number change is -10.3%. Further, the AC50 under setting [1] was 7.31 µM [falling, single point].
In the case of `COc1ccc(C(=O)N2CCN(c3ccccc3OC)CC2)cc1`, the cell number change was 13.7%. Also, the AC50 under setting [2] is 1.16 µM [rising, full curve, poor fit].
Consider `CS(=O)(=O)N(CC(=O)N1CCN(Cc2ccc3c(c2)OCO3)CC1)c1ccc2c(c1)OCO2`, for which the cell number change is -8.79%. Under setting [2], the AC50 was 6.51 µM [rising, single point].
On to `Cc1cc(C)cc(-n2ncc3c2CCCC3NC(=O)CCN2Cc3ccccc3C2=O)c1` (stereo not given), for which the cell number change was -29.2%. For the same compound, the AC50 under setting [1] is 5.17 µM [falling, full curve, poor fit]. The AC50 under setting [2] is 29.1 µM [falling, single point].
For the compound `FC(F)(F)c1cc(-c2ccccc2)nc(NCc2cccs2)n1`, the cell number change is -35.8%. The AC50 under setting [1] was 14.6 µM [falling, partial curve]. Moreover, under setting [2], the AC50 is 8.2 µM [falling, partial curve, poor fit].
Regarding `O=C(CN1C(=O)C2C3C=CC(C3)C2C1=O)Nc1nncs1` (stereo not given), the cell number change was determined as 8.98%.
Consider `COc1ccc(CCn2nnnc2C(c2ccc(Cl)cc2)N2CCN(C)CC2)cc1OC` (stereo not given), for which the cell number change is 0.415%. Besides, the AC50 under setting [1] was 0.146 µM [falling, full curve, poor fit].
Turning to `Cc1ccc(CNC(=O)CS(=O)Cc2nc(-c3cccs3)oc2C)cc1` (stereo not given), the cell number change stood at 61.4%. Besides, the AC50 under setting [1] is 1.64 µM [rising, full curve]. Moreover, the AC50 under setting [2] is 1.46 µM [rising, partial curve].
Turning to `COc1ccc(CCNC(=O)c2cc(S(=O)(=O)N3CCOCC3)cn2C)cc1OC`, the cell number change is -15.6%. Further, under setting [2], the AC50 is 0.00411 µM [falling, full curve, poor fit].
Consider `CN(C)Cc1ccc(CNC(=O)c2ccc(Cl)c(S(=O)(=O)NC3CC3)c2)cc1`, for which the cell number change is -6.33%. Moreover, under setting [2], the AC50 is 2.31 µM [falling, partial curve].
Regarding `C/C(Cn1nnc([N+](=O)[O-])n1)=N\NC(=O)c1ccccc1O`, the cell number change was -22.2%. In addition, the AC50 under setting [2] is 25.9 µM [falling, partial curve].
Regarding `CCCc1nc2nc(C)c(NS(=O)(=O)c3ccc4c(c3)CCCC4)c(=O)n2[nH]1`, the cell number change was -7.94%. The AC50 under setting [2] was 5.17 µM [rising, full curve].
In the case of `COC(=O)c1cc2sccc2n1CC(=O)N1CCCc2ccccc21`, the AC50 under setting [1] was 2.31 µM [rising, partial curve] and the AC50 under setting [2] was 2.91 µM [rising, partial curve].
On to `O=C(OCCOc1cccc(Cl)c1)c1ccc2ncsc2c1`, for which the cell number change was 3.6%. Moreover, the AC50 under setting [2] was 29.1 µM [rising, single point].
Regarding `CN(C)CC(=O)Nc1cc(C(F)(F)F)ccc1Cl`, under setting [2], the AC50 is 29.1 µM [falling, single point].
As to `Cc1ccc(NC(=O)C2CCN(S(=O)(=O)c3ccc(N4CCCC4=O)cc3)CC2)cc1Cl`, the cell number change is -30.8%. The AC50 under setting [1] is 9.2 µM [falling, single point]. Also, the AC50 under setting [2] is 3.66 µM [falling, partial curve].
On to `CCOc1ccc(CCNC(=O)c2cccnc2N2CCCC2)cc1OCC`, for which the cell number change was 22.3%. Besides, the half-maximal activity concentration (AC50) under setting [2] was 23.1 µM [rising, single point].
Turning to `COC(=O)CC(NS(=O)(=O)c1cccs1)c1ccc2c(c1)OCO2` (stereo not given), the cell number change was -18.4%. The AC50 under setting [2] is 7.08 µM [falling, partial curve].
As for `CN(Cc1ccccc1)c1nc2c(c(=O)n(C)c(=O)n2C)n1CCCc1ccccc1`, under setting [1], the AC50 was 6.51 µM [rising, single point].
`CCOC(=O)CN1C(=O)N[C@@H](c2ccccc2)C(C(C)=O)=C1C`: the cell number change came to 17.5%.
With `C/C(=N\NC(=O)c1ccc(CSc2nncn2C)cc1)c1ccc2ccccc2c1`, the cell number change worked out at 14.3%. For the same compound, the AC50 under setting [2] is 3.26 µM [rising, single point].
Consider `COC(=O)c1sc(-c2cccs2)cc1NC(=O)/C=C/C(=O)O`, for which the cell number change is -16.7%. Moreover, the AC50 under setting [2] was 29.1 µM [falling, single point].
Take `O=C(Nc1ccc(N2CCOCC2)c(Cl)c1)c1ccc(-n2cnnc2)cc1`: the cell number change worked out at 8.62%. Moreover, the half-maximal activity concentration (AC50) under setting [2] was 1.84 µM [falling, partial curve].
`CN(C)C(=O)CSc1nnc2sc3ccccc3n12`: the cell number change is -32.6%. Under setting [1], the AC50 was 6.51 µM [falling, single point]. Further, under setting [2], the AC50 was 0.00461 µM [falling, full curve, poor fit].
For the compound `O=S(=O)(NC1CCCCC1NCc1ccco1)c1ccc(Cl)cc1` (stereo not given), the cell number change is -6.45%. Besides, the AC50 under setting [1] is 1.84 µM [falling, partial curve]. The AC50 under setting [2] was 6.51 µM [falling, single point].
As to `CC(=O)c1noc(C)c1C(=O)Nc1nccs1`, the AC50 under setting [2] is 0.58 µM [rising, single point].
Take `O=C(CC(=O)NC1CCCCC1)N/N=C/c1ccccc1F`: the cell number change was determined as 80.6%. Moreover, the AC50 under setting [1] is 29.1 µM [rising, single point].
For the compound `Cc1ccc(C(C(=O)NC2CCCCC2)N(CCCN2CCOCC2)C(=O)c2snc(C(N)=O)c2N)cc1` (stereo not given), the cell number change was found to be 4.76%. Moreover, the AC50 under setting [2] was 6.51 µM [falling, single point].
For the compound `CCOC(=O)C1=C(CNCCc2ccc(Cl)cc2)NC(=O)NC1c1ccc2c(c1)OCO2` (stereo not given), the cell number change came to 199%. Further, the AC50 under setting [1] was 5.17 µM [rising, partial curve]. The AC50 under setting [2] is 4.61 µM [rising, partial curve].
Turning to `O=C(COC(=O)CCCN1C(=O)c2cccc3cccc(c23)C1=O)Nc1cccc(Br)c1`, the cell number change was 40.6%. For the same compound, the AC50 under setting [1] was 25.9 µM [rising, single point]. The AC50 under setting [2] was 20.6 µM [rising, single point].
With `O=C(NCC1CCCO1)c1cc(-c2ccco2)nc2ccccc12` (stereo not given), the cell number change is -19.5%. For the same compound, under setting [2], the AC50 is 4.11 µM [rising, partial curve].
`CC(C)C(NS(=O)(=O)c1cccc2nsnc12)C(=O)NCc1ccc2c(c1)OCO2` (stereo not given): the cell number change is -19.2%. Moreover, under setting [1], the AC50 was 0.0058 µM [falling, full curve, poor fit]. The AC50 under setting [2] is 0.0461 µM [falling, full curve, poor fit].
Regarding `O=C1c2ccccc2-c2nnc(-c3ccc(O)cc3)cc21`, the cell number change is -13.1%.
Take `Cc1cc(O)c(-c2cc(O)c(C)cc2O)cc1O`: the cell number change is -68.3%. Also, the AC50 under setting [1] is 18.4 µM [falling, partial curve]. Further, under setting [2], the AC50 is 29.1 µM [falling, single point].
As to `N#Cc1c(NC(=O)C2CC2)sc2c1CCCCC2`, the cell number change is -42.3%. Also, under setting [1], the AC50 was 29.1 µM [falling, single point]. For the same compound, under setting [2], the AC50 was 14.6 µM [falling, partial curve, poor fit].
As to `COc1cc2nc(N3CCN(C(=O)[C@H]4COc5ccccc5O4)CC3)nc(N)c2cc1OC`, the cell number change was 8.03%. The AC50 under setting [2] is 6.51 µM [falling, single point].
For the compound `Cc1ccc(C(=O)c2ccccc2C(=O)OCC(=O)N2CC(C)CC(C)C2)cc1` (stereo not given), the cell number change was -24.9%. The AC50 under setting [1] was 2.91 µM [falling, partial curve]. Under setting [2], the AC50 was 2.06 µM [falling, partial curve].
